Reference: patent publication US20200024319A1
These are yes or no findings as the source states them, for the method shown. Some binding calls cover weakened binding; strength is not graded here.

By UniProt entry, the sequences of proteins in these tests, tags left out. Where a name states a change or a piece, a line headed by the entry shows the natural chain unless it says otherwise. Residues count along the entry.
UniProt Q29615, residues 21-154: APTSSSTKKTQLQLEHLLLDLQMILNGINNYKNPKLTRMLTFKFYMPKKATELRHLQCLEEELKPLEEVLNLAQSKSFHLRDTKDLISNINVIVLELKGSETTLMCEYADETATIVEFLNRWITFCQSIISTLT
UniProt P60568: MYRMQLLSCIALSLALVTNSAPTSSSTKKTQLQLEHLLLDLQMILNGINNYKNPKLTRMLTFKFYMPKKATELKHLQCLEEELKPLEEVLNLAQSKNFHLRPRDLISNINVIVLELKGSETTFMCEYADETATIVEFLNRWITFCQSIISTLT

Legend:
[1] = target: cynomolgus monkey IL-2 (cynomolgus monkey) (UniProt Q29615); assay: ELISA
[2] = target: wild-type human IL-2 (human) (UniProt P60568); assay: ELISA

Row | Binder | binding [1] | binding [2]
1 | 14A6 (antibody, V domains shown) VH: QVQLVQSGAEVKKPGASVKVSCKASGYTFTTYDINWVRQATGQGLEWMGWMNPNSGNTGYAQKFQGRVTMTRNTSISTAYMELSSLRSEDTAVYYCARGRQWLGFDYWGQGTLVTVSS VL: DIQMTQSPSSLSASVGDRVTITCRASQGIGDDLGWYQQKPGKAPQRLIYSASSLPSGVPSRFSGSGSGTEFTLTISSLQPEDFATYYCLQHNSYPRSFGQGTKLEIR | binds | binds
2 | 11D6 (antibody, V domains shown) VH: QVQLVQSGAEVKKPGASVKVSCKASGYTFTNYDINWVRQATGQGLEWMGWMNPNSGNTGYAQKFQGRVTMTRNTSINTAYMELSSLRSEDTAVYYCARGRQWLGFDYWGQGTLVTVSS VL: DIQMTQSPSSLSASVGDRVTITCRASQDIEHDLGWYQQKPGKAPKRLIYAASTLPSGVPSRFSGSGSGTEFTLTISSLQPEDFATYYCLQHNSFPRSFGQGTQLEIK | binds | binds
3 | 10A9 (antibody, V domains shown) VH: EVQLVQSGAEVKKPGESLKISCKGSGYSFTSQWIGWVRQMPGKGLEWMGIIFPGDSDTRYSPSFQGQVTISADKSISTAYLQWSSLKASDTAMYYCARQGRSYHYYGMDVWGQGTTVTVSS VL: DIVMTQTPLSLPVTPGEPASISCRSTQSLLDGDDGNTLLDWYLQKPGQSPQLLIYTLSYRASGVPDRFSGSGSGTDFTLKISRVEAEDVGVYYCMQRLEFPLTFGGGTKVEIK | binds | binds
4 | 16E3 (antibody, V domains shown) VH: EVQLVQSGAEVKKPGESLKISCKGSGYGFTNYWIGWVRQMPGKGLEWMGTIYPGDSDTRYSPSFQGQVTFSADKSISTAYLQWSSLKASDTAMYYCARQGRSYYYFGMDVWGQGTTVTVSS VL: DIVMTQTPLSLPVTPGEPASISCRSSQSLLDSDEGNTFLDWYLQKPGQPPQLLIYTLSYRASGVPDRFSGSGSGTDFTLKISRVEAEDVGVYYCMQRIEFPLTFGGGTKVEIK | binds | binds
5 | 5H3 (antibody, V domains shown) VH: EVQLVQSGAEVKKPGESLKISCKGSGYSFTSYWIGWVRQMPGKGLEWMGIIYPGDSDTTYSPSFQGQVTISADKSINTAYLQWSSLKASDTAMYYCAREGFGESIHYGLDVWGQGTTVTVSS VL: SYELTQPPSVSVSPGQTARITCSGDALPRQYAYWYQQKPGQAPMLVIYKDSERPSGIPERFSGSSSGTTVTLTISGVQAEDEADYYCQSADSSGTYVVFGGGTKLTVL | binds | binds
6 | 2B12 (antibody, V domains shown) VH: EVQLVQSGAEVKKPGESLKISCKGSGYNFTNYWIGWVRQMSGKGLEWMGIIYPGDSETRYSPSFQGQVTISADKSISTAYLQWSSLKASDTAMYYCARHGGGWSGWGMDVWGQGTTVTVSS VL: SYELTQPPSVSVSPGQTARITCSGDALPRKYAYWYQQKSGQAPVLVIYEDSKRPSGIPERFSGSSSGTMATLTISGAQVEDEADYYCYSTDSSGNHYVFGTGTKVTVL | binds | binds
7 | 14D7 (antibody, V domains shown) VH: QVQLQESGPGLVKPSQTLSLTCTVSGGSISSGGYYWNWIRQHPGKGLEWIGYIYYSGNTHYNPSLKSRVTISVDTSKNQFSLKLSSVIAADTAVYYCARDWGRDAFDIWGQGTMVTVSS VL: DIQMTQSPSSLSASVGDRVTITCRASQTISSYLNWYQQKPGKAPKVLIYAASSFQSGVPSRFSGSGSGTDFTLTISSLQPEDFATYYCQQSHYIPRTFGQGTKVEIK | binds | binds
8 | 17D9 (antibody, V domains shown) VH: QVQLQESGPGLVKPSETLSLTCTVSGGSVSSGGYYWSWIRQPPGKGLEWIGNTYYSGSTNYKPSLKSRVTISVDTSKNQFSLKLSSVTAADTAVYYCGRDRGRAVGPFDYWGQGTLVTVSS VL: DIQMTQSPSSLSASVGDRVTITCRASQDIRNDLGWYQQKPGKAPKRLIYAASSLQSGVPSRFSGSGSGTEFTLTIGSLQPEDFTTYYCLQHNSYPLTFGGGTKVEIK | binds | binds
